# Reference: PubChem BioAssay AID1688 (National Center for Advancing Translational Sciences (NCATS), 2009)
# About 2,400 (1.1%) of roughly 220,000 compounds were called active. This list was built around the results that the source calls inconclusive (neither active nor inactive); the mix of calls is not that of the screen. Calls follow the shape of the dose curve; as a rule, active = well fitted inhibition curve with a large enough effect; inconclusive = small, poorly fitted or top-dose-only effect, or effect the other way; inactive = no such curve, though single readings can be large or run the other way. Potencies of inconclusive entries are doubtful fits and often do not repeat.
# Experiment: qHTS Multiplex Assay to Identify Dual Action Probes in a Cell Model of Huntington: Aggregate Formation (GFP); also: nearly all actives have a fitted effect of over 60% in size
# Conditions: PC12 HttQ103-GFP aggregates, Acumen cytometry, 40 h; activity change, negative = inhibition: at 46.1 µM (top of the series) unless noted
# In short: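 Steps: seed 1500 PC12 HTTQ103-GFP cells/well; add tebufenozide, 100 nM final; add compound titration; add ATPLite reagent; quantify GFP aggregates by laser scanning cytometry.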
# % is scaled to controls: 0 for no effect and ±100 for the full control effect; potency is read from the fitted curve at half-maximal effect.
Compound,Potency,"activity change, negative = inhibition"
O=C(NCc1cccc(Cl)c1)c1ccc(S(=O)(=O)Nc2cccc(C(F)(F)F)c2)cc1,"inconclusive: 35.5 µM [inhibitor, single point]",–
O=c1c(Cl)c(Cl)cnn1-c1ccccc1,"inconclusive: 8.91 µM [inhibitor, partial curve, poor fit]",–
CC(=O)C1=C(O)C(=O)N(Cc2ccco2)C1c1ccc(F)cc1 (stereo not drawn),"inconclusive: 35.5 µM [inhibitor, single point]",–
COc1ccccc1N1CCN(C(c2ccc(Cl)cc2)c2nnnn2C(C)(C)C)CC1 (stereo not drawn),"inconclusive: 35.5 µM [inhibitor, single point]",–
Cc1ccc(NS(=O)(=O)c2ccc(NC(=O)c3cccc(NC(=O)C(C)C)c3)cc2)cc1,"inconclusive: 35.5 µM [inhibitor, single point]",–
CCN(CCCNC(=O)c1c(C)cc(=O)oc1C)c1ccccc1,–,inactive: 26.2%
O=C(NCc1ccco1)C(c1ccccc1)N(Cc1cccnc1)C(=O)Cn1nnc2ccccc21 (stereo not drawn),"inconclusive: 35.5 µM [activator, partial curve]",–
CCN1CCS/C1=C/C=C/C1=[N+](CC)CCS1,active: 0.501 µM,–
CC1CN(S(=O)(=O)c2ccc(NC(=O)c3cc(-c4ccccc4O)n[nH]3)cc2)CC(C)O1 (stereo not drawn),–,inactive: 17% [at 9.22 µM]
COc1ccc(S(=O)(=O)N2CCc3ccccc3C2)cc1OC,–,inactive: -0.523%
O=C(O)CCN1C(=O)c2ccccc2C1=O,–,inactive: -10.7%
CC(=O)Nc1ccc(Nc2nc(C)c([N+](=O)[O-])c(Nc3ccccc3)n2)cc1,"inconclusive: 12.6 µM [inhibitor, partial curve]",–
CCN1C(=O)/C(=C/c2nc3ccccc3c(=O)n2-c2ccccc2)c2ccccc21,"inconclusive: 5.62 µM [activator, full curve]",–
COc1ccccc1C(CC(=O)Nc1ccc(C)c(C)c1)c1ccc(OC(C)C)cc1 (stereo not drawn),"inconclusive: 2.82 µM [inhibitor, single point]",–
NC(=O)c1cc(NC(=O)c2cc(Br)c(Br)s2)cc(C(N)=O)c1,"inconclusive: 5.62 µM [inhibitor, single point]",–
CC1CCN(S(=O)(=O)c2ccc(C(=O)Nc3nnc(-c4ccncc4)o3)cc2)CC1,"inconclusive: 25.1 µM [inhibitor, single point]",–
Clc1ccc(OCc2nnc(SCCN3CCCCC3)n2Cc2ccco2)cc1,"inconclusive: 0.562 µM [activator, full curve, poor fit]",–
COC(=O)C1=C(C(=O)OC)[C@@H]2N(C)c3ccccc3[C@@]23C[C@@H](CO)N(C(=O)NCCBr)C3=N1,–,inactive: 1.2% [at 9.22 µM]

# Whole records as entered above.
# CCN1CCS/C1=C/C=C/C1=[N+](CC)CCS1 in the list: Potency: active: 0.501 µM
# CC1CCN(S(=O)(=O)c2ccc(C(=O)Nc3nnc(-c4ccncc4)o3)cc2)CC1 in the list: Potency: inconclusive: 25.1 µM [inhibitor, single point]
